Measurements from publication PMC4172637.
Results are given in words; binding and its absence hold for the method and conditions named. Binding seen in cells or lysates may run through a third protein. Some entries that bind do so weakly or less than the wild type. For some of these results: Sequences can lack the tags named with a protein.

The chains behind the UniProt entries cited, without tags or fusion partners.
UniProt Q24572: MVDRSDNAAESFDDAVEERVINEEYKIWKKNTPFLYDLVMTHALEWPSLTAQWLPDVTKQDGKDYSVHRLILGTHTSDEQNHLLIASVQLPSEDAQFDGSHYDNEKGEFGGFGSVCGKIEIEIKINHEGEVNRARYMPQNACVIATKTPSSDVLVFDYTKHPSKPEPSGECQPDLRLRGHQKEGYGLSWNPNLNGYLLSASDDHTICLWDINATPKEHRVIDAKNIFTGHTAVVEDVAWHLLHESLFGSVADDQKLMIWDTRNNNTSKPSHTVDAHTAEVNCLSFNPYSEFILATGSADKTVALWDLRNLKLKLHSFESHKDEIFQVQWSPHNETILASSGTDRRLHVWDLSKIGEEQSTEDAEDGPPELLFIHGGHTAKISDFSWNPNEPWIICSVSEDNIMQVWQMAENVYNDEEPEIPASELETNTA
UniProt Q24368: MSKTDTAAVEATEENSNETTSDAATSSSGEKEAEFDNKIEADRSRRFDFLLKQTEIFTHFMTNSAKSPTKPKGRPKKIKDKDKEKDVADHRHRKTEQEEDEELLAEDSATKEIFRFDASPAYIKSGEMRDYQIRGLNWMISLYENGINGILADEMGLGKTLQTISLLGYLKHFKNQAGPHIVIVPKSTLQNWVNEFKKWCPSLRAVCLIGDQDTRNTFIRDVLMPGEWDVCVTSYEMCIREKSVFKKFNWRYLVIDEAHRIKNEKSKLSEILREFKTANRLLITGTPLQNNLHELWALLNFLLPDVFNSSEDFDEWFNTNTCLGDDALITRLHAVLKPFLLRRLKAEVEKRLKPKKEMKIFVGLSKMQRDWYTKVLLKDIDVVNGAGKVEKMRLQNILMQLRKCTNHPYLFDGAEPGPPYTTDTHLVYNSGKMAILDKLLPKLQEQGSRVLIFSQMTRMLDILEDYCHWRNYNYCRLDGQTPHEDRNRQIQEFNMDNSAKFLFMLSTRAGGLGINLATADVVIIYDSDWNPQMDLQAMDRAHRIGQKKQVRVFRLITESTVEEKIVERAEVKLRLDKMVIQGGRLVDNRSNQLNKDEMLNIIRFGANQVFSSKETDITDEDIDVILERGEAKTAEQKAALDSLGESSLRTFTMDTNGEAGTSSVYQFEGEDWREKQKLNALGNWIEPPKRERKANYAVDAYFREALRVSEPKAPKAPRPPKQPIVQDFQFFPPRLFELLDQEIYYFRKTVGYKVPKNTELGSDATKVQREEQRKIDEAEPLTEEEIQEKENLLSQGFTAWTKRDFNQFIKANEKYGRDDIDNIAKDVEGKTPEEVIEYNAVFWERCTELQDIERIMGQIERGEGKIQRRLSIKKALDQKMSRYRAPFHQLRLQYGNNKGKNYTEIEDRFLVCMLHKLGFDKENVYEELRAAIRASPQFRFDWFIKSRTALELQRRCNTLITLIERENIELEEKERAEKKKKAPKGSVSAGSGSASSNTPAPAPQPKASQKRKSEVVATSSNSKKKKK
UniProt P04197: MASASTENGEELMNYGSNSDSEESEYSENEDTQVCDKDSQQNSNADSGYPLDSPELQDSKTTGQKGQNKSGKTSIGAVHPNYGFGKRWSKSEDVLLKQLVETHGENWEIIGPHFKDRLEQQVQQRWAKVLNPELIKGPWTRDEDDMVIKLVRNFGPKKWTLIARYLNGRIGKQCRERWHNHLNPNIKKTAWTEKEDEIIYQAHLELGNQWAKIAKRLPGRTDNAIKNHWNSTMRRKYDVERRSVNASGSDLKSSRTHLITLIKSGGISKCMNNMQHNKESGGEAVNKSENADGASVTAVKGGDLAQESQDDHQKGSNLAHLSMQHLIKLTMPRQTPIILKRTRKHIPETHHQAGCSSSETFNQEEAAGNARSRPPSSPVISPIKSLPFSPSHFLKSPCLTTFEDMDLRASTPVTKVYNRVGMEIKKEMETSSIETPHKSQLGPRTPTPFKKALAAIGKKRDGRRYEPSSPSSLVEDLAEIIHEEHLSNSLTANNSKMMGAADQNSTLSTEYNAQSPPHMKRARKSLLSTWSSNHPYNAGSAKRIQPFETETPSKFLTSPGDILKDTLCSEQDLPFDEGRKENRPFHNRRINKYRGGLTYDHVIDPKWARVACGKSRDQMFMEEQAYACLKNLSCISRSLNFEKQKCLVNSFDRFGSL

T1: Centrosomal protein 190 (endogenous) (Drosophila (endogenous in S2 cells)) (UniProt Q24478)
T1 sequence: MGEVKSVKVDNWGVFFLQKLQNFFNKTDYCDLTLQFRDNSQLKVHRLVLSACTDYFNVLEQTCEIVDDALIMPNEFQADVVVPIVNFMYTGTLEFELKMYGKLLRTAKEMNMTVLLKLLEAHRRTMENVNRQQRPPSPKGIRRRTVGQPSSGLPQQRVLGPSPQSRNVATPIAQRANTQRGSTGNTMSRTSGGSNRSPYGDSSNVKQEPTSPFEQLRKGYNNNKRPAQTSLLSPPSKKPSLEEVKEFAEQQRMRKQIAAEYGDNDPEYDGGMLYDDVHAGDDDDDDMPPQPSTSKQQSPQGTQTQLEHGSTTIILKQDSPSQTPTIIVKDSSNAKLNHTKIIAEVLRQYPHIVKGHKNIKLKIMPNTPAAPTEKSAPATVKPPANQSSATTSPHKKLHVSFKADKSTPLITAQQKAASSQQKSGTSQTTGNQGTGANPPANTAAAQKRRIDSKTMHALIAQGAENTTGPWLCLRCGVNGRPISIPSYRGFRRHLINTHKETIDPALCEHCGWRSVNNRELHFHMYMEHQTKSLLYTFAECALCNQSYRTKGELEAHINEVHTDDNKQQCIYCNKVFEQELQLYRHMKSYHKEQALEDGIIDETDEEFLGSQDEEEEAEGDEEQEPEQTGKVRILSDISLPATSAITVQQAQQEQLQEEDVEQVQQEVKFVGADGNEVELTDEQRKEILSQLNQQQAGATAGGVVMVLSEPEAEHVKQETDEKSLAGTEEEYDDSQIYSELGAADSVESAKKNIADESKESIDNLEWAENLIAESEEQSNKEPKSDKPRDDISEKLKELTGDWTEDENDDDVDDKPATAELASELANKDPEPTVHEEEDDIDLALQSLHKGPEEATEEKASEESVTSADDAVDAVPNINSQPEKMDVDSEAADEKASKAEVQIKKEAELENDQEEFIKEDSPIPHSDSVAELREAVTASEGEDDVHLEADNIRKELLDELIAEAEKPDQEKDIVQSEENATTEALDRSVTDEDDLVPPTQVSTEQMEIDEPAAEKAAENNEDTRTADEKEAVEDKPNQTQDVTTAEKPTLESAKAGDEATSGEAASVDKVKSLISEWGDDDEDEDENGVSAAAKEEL

T2: dCTCF (endogenous) (Drosophila (endogenous in S2 cells)) (UniProt Q9VS55)
T2 sequence: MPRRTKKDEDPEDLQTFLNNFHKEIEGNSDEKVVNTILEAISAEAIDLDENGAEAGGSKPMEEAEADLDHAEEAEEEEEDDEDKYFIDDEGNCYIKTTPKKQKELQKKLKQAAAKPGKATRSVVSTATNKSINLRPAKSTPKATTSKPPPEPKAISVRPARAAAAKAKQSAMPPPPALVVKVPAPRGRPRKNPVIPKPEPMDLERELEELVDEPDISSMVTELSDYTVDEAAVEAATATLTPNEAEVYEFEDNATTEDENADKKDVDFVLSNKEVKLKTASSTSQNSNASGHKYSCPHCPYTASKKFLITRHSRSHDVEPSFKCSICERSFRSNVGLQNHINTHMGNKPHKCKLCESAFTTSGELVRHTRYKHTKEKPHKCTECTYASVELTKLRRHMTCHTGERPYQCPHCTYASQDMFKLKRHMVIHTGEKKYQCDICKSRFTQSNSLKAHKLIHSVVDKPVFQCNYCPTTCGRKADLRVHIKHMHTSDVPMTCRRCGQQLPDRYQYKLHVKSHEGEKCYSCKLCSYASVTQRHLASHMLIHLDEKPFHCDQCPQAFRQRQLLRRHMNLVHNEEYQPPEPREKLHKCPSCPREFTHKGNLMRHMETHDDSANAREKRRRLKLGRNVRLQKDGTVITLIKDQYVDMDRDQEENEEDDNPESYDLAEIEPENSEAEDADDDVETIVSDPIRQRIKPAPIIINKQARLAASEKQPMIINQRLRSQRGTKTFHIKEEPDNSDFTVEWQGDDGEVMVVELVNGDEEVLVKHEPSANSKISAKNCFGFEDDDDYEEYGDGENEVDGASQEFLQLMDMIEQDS

T3: FLAG-CP190 (Drosophila) (UniProt Q24478)
T3 sequence: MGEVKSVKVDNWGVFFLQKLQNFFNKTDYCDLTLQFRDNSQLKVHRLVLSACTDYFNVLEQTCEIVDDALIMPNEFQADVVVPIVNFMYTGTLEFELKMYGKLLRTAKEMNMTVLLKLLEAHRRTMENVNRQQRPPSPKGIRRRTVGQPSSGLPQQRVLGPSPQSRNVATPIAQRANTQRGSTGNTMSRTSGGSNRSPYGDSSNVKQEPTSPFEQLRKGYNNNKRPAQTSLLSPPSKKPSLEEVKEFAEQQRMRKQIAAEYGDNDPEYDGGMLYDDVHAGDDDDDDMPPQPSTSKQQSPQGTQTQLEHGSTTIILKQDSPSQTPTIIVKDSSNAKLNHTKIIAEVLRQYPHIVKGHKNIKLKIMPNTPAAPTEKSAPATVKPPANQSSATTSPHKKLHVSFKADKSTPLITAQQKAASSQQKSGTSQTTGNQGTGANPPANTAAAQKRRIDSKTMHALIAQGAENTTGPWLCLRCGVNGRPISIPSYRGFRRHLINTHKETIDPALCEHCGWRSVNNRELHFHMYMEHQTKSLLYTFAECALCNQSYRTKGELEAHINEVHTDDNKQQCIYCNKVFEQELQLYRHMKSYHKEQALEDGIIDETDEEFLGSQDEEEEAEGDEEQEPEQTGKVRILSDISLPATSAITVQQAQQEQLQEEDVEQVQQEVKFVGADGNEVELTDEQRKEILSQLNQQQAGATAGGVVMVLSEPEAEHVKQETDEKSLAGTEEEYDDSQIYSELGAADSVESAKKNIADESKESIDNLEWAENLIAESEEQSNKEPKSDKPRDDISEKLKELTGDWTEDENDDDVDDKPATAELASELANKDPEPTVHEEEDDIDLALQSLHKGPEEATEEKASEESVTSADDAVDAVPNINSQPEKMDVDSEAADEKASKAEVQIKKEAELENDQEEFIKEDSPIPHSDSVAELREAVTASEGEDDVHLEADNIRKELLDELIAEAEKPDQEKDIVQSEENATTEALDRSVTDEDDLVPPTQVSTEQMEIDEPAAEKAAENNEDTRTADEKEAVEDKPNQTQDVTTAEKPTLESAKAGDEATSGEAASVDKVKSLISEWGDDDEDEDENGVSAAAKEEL

T4: FLAG-dCTCF (Drosophila) (UniProt Q9VS55)
T4 sequence: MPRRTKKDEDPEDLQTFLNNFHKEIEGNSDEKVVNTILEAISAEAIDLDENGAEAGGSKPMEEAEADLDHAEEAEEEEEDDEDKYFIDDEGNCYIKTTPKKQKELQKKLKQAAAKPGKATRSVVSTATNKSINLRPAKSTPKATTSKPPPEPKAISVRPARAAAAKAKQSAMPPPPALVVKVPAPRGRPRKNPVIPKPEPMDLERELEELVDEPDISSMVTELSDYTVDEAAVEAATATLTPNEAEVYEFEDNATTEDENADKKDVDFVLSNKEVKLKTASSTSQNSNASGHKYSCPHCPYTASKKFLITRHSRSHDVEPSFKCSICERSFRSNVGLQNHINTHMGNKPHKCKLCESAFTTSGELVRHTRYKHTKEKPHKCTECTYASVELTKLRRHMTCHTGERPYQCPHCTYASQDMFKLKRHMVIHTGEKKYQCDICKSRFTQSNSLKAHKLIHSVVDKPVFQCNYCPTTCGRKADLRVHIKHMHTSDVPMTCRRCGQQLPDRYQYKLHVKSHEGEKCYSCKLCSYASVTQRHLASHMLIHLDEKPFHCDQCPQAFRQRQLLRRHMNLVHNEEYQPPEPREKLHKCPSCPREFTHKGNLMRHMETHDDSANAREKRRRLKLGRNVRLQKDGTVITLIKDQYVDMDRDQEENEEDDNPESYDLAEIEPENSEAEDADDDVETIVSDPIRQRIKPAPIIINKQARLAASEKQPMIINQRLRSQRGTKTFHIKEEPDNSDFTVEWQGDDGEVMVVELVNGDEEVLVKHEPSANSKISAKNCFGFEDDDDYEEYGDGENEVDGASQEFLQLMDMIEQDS


Key:
[1] = biological target: T1, Centrosomal protein 190 (endogenous) (Drosophila (endogenous in S2 cells)); assay: co-IP; endogenous: nuclear extract of wildtype S2 cells precipitated with CP190 or dCTCF specific antibodies; Western blot; mouse IgG as control
[2] = biological target: T2, dCTCF (endogenous) (Drosophila (endogenous in S2 cells)); assay: as above
[3] = biological target: T3, FLAG-CP190 (Drosophila); assay: co-IP; FLAG-M2 antibody precipitation from nuclear extract of S2 cells stably expressing FLAG-CP190 or FLAG-dCTCF; washes 20 mM Tris-HCl pH 7.5, 100 mM NaCl, 0.25% NP-40; Western blot; untransfected S2 cells as negative control
[4] = biological target: T4, FLAG-dCTCF (Drosophila); assay: as above

Row | binding [1] | binding [2] | binding [3] | binding [4] | Molecule
1 | binds | binds | binds | binds | CAF-1/p55 (from UniProt Q24572 1-430)
2 | binds | binds | binds | binds | ISWI (from UniProt Q24368 1-1027)
3 | binds weakly | binds weakly | binds | binds | Myb (from UniProt P04197 1-657)
4 | binds | binds | binds | binds | Mip120 (protein, UniProt A1Z9E2 1-950) MDTSGGNLDSLDDTEPLPELSFEDFLEPTSEKSSQHMEIEALDSEEDNIGGEDLADPANDSLNTPQFKKNVVHILEDKRLNSSGLTVLKSHAIKMVTAGGTPPAKAQVTDVKILNKLKPIPSSTLKIGSTTIATKSTPGSITKTLGNLTQIRTKDGQVIFVQKSVPGTQSSTAVTGSPSGGIRRLVAPSGIQKAVLSKGVTMASTGLVKAAVPAKASTSVPGSAITLKGIQPLAGGTAKASTSSTTATTSPSLAQPNKIQVVRTADGKIIKINQAGPSLLVNAKQGTGTTVTPGGSAATSVKLSPSTGNVVLNKPVGQVVVRTETPVKTATGSVASASATPGKMLVQSGGKQILVSNKNIIKLSPNASATSSTTHTTGGQTPSTSSGLHAIQLPGKGGIQYVRVLNNNKSAAGTSATASIPKTVQTQKITVVRPPAATGVPATSTTTSAAAASPAAASKANLAMGNTNKIVMRSMGGSIVPLPSVQTLVSKRALGAISNASKPASAASSSATPSASQELPRKHRLTDLNVQLKQSASVSSEASDSSDAGPEAKKPRYVITMQQGSQKAASQPVQKLINRTANVQRVVSSSTSPSSNSTKKIYNYVQPTGSNGAKYMICNSGVPQSSTSAMRRGYTGYVENKTRRPPPISPQQHRFKQMGPQQQSKHQQLQAQAKQRIRQQQLPTEQSTPIKVEPKLPTLPPGVKANVPAKPLFEVLKPPATAAAAGAVDPLGGMTSRRKHCNCSKSQCLKLYCDCFANGEFCQDCTCKDCFNNLDYEVERERAIRSCLDRNPSAFKPKITAPNSGDMRLHNKGCNCKRSGCLKNYCECYEAKIPCSSICKCVGCRNMEDRPDVDMDSLDGLMGVEGQKKDKAKNKQLNENRANIYFTDDVIEATIMCMISRIVMHEKQNVAVEDMEREVMEEMGESLTQIIAFAKEKQETSQIDESKPSS
